{"source": "the supplement of paper PMC8104966", "note": "Some of the results follow. This data set is noisy: repeats of one test often differ as much as different tests do.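 U2OS cells carrying ACE2 were mixed with U2OS cells carrying full-length spike, and fusion was scored by imaging as the share of nuclei showing both cell types' fluorescent markers. A compound counts as an inhibitory hit when it is non-toxic and its fusion z-score falls below -3, meaning more than three standard deviations below the plate's DMSO wells.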", "data": [{"test_system": "U2OS ACE2 x SARS-CoV-2 spike co-culture", "assay": "cell-cell fusion (fraction fused) z-score vs plate DMSO control; higher = more fusion", "conditions": "30 µM; 5 h; toxicity class: non-toxic, passed QC", "values": [{"smiles": "COC(=O)[C@H]1[C@H]2C[C@@H]3c4[nH]c5cc(OC)ccc5c4CCN3C[C@H]2C[C@@H](OC(=O)c2cc(OC)c(OC)c(OC)c2)[C@@H]1OC", "note": "[Reserpine]", "cell-cell fusion (z-score)": "inactive: 0.829"}, {"smiles": "O=C1CCCC(=O)C1C(=O)c1ccc(C(F)(F)F)cc1[N+](=O)[O-]", "note": "[Nitisinone]", "cell-cell fusion (z-score)": "inactive: 3.14"}, {"smiles": "Oc1ncnc2[nH]ncc12", "note": "[Allopurinol]", "cell-cell fusion (z-score)": "inactive: 2.85"}, {"smiles": "NS(=O)(=O)c1cc2c(cc1Cl)NC(C(Cl)Cl)NS2(=O)=O", "note": "(stereo not drawn) [Trichlormethiazide]", "cell-cell fusion (z-score)": "inactive: 3.39"}, {"smiles": "CCCC(CCC)C(=O)OC1CC2CCC(C1)[N+]2(C)C.[Br-]", "note": "(stereo not drawn) [Anisotropine methyl bromide]", "cell-cell fusion (z-score)": "inactive: -1.92"}, {"smiles": "O=C(O[C@@H]1Cc2c(O)cc(O)cc2O[C@@H]1c1cc(O)c(=O)c2c(O)c(O)cc([C@H]3Oc4cc(O)cc(O)c4C[C@H]3O)c2c1)c1cc(O)c(O)c(O)c1", "cell-cell fusion (z-score)": "inactive: 0.492"}, {"smiles": "O=C(O)CCCCCCCC(=O)O", "cell-cell fusion (z-score)": "inactive: 2.52"}, {"smiles": "O=C(O)CCCCCCCC(=O)O", "note": "[Azelaic acid]", "cell-cell fusion (z-score)": "inactive: 2.17"}, {"smiles": "CC(C)[C@H]1CN[C@H](C(=O)O)[C@H]1CC(=O)O", "note": "[Dihydrokainic acid]", "cell-cell fusion (z-score)": "inactive: 1.21"}, {"smiles": "O=C(CCCN1CCC(O)(c2ccc(Br)cc2)CC1)c1ccc(F)cc1", "cell-cell fusion (z-score)": "inactive: 3.09"}, {"smiles": "COc1ccc(O)cc1", "cell-cell fusion (z-score)": "inactive: 0.996"}, {"smiles": "O=c1[nH]c2ccccc2n1C1CCN(CCCC(c2ccc(F)cc2)c2ccc(F)cc2)CC1", "cell-cell fusion (z-score)": "inactive: 2.56"}, {"smiles": "Nc1nc(N)c2nc(-c3ccccc3)c(N)nc2n1", "cell-cell fusion (z-score)": "inactive: 1.86"}, {"smiles": "CCCCOc1ccc(C(=O)CCN2CCCCC2)cc1.Cl", "cell-cell fusion (z-score)": "inactive: 0.0433"}, {"smiles": "CC(=O)Oc1c(C)cccc1C(=O)O", "cell-cell fusion (z-score)": "inactive: 0.753"}, {"smiles": "N[C@@H](Cc1cc(I)c(Oc2ccc(O)c(I)c2)c(I)c1)C(=O)O", "note": "[O-(4-Hydroxy-3-iodophenyl)-3,5-diiodo-L-tyrosine]", "cell-cell fusion (z-score)": "inactive: 1.32"}, {"smiles": "c1ccc2c(c1)sc1ccccc12", "cell-cell fusion (z-score)": "inactive: 0.754"}, {"smiles": "CCNC(=O)/C=C/c1cccc(Br)c1", "cell-cell fusion (z-score)": "inactive: 2.57"}, {"smiles": "O=C(OCC(O)CO)c1ccccc1Nc1ccnc2cc(Cl)ccc12", "note": "(stereo not drawn)", "cell-cell fusion (z-score)": "inactive: -2.88"}, {"smiles": "C[C@@H]1CC2C3C[C@H](F)C4=CC(=O)C=C[C@]4(C)[C@@]3(F)[C@@H](O)C[C@]2(C)[C@@]1(O)C(=O)COC(=O)C(C)(C)C", "note": "(stereo partly drawn)", "cell-cell fusion (z-score)": "inactive: -0.015"}, {"smiles": "Nc1nc2ccc(OC(F)(F)F)cc2s1", "cell-cell fusion (z-score)": "inactive: 1.26"}, {"smiles": "C[C@@H]1CC[C@]2(C(=O)O[C@@H]3O[C@H](CO[C@@H]4O[C@H](CO)[C@@H](O[C@H]5O[C@H](C)[C@H](O)[C@@H](O)[C@H]5O)[C@H](O)[C@H]4O)[C@@H](O)[C@H](O)[C@H]3O)CC[C@]3(C)C(=CCC4[C@@]5(C)C[C@@H](O)[C@H](O)[C@@](C)(CO)C5CC[C@]43C)C2[C@H]1C", "note": "(stereo partly drawn)", "cell-cell fusion (z-score)": "inactive: 2.2"}, {"smiles": "CC1(C)CCC(NC(=O)[C@@H](N)CCC(=O)O)CC1", "cell-cell fusion (z-score)": "inactive: 3.04"}, {"smiles": "CCOC(=O)c1c(C)cc(O)cc1O", "cell-cell fusion (z-score)": "inactive: 2.56"}, {"smiles": "Oc1cccc(-c2nc(N3CCOCC3)c3oc4ncccc4c3n2)c1", "cell-cell fusion (z-score)": "inactive: 0.811"}, {"smiles": "O=C(O)c1ccccc1Nc1ccccc1", "note": "[N-Phenylanthranilic acid]", "cell-cell fusion (z-score)": "inactive: 1.92"}, {"smiles": "O=C1CCc2cc(OCCCCc3nnnn3C3CCCCC3)ccc2N1", "note": "[Cilostazol]", "cell-cell fusion (z-score)": "inactive: 1.88"}, {"smiles": "C=CCCCCCCCCC(=O)O", "cell-cell fusion (z-score)": "inactive: 2.16"}, {"smiles": "CCCCNc1ccc(C(=O)OCCN(C)C)cc1.Cl", "note": "[Tetracaine hydrochloride]", "cell-cell fusion (z-score)": "inactive: 2.22"}, {"smiles": "Cl.Nc1cc(N2CCCCC2)nc(N)[n+]1[O-]", "cell-cell fusion (z-score)": "inactive: 2.87"}, {"smiles": "COc1cc2c(cc1OC)[C@@H]1C(=O)c3ccc4oc(C(C)C)cc4c3O[C@@H]1CO2", "cell-cell fusion (z-score)": "inactive: 1.78"}, {"smiles": "COc1c(C)c2c(c(O)c1C/C=C(\\C)CCC(=O)O)C(=O)OC2", "note": "[Mycophenolic acid]", "cell-cell fusion (z-score)": "inactive: 2.81"}, {"smiles": "NC(=O)c1cnccn1", "note": "[Pyrazinecarboxamide]", "cell-cell fusion (z-score)": "inactive: 1.32"}, {"smiles": "N=C(N)NCCN1CCCCCCC1", "cell-cell fusion (z-score)": "inactive: 2.31"}, {"smiles": "Cc1c(OCC(F)(F)F)ccnc1CS(=O)c1nc2ccccc2[nH]1", "note": "(stereo not drawn) [Lansoprazole]", "cell-cell fusion (z-score)": "inactive: 2.59"}, {"smiles": "S=C=Nc1ccc(N=C=S)cc1", "cell-cell fusion (z-score)": "inactive: 1.8"}, {"smiles": "CC(=O)OCC(=O)[C@@]1(O)CCC2C3C[C@H](C)C4=CC(=O)C=CC4(C)C3[C@@H](O)CC21C", "note": "(stereo partly drawn) [6alpha-METHYLPREDNISOLONE ACETATE]", "cell-cell fusion (z-score)": "inactive: 3.93"}, {"smiles": "CC(C)(Oc1ccc(CCNC(=O)c2ccc(Cl)cc2)cc1)C(=O)O", "cell-cell fusion (z-score)": "inactive: 0.27"}, {"smiles": "CC(C)(Oc1ccc(CCNC(=O)c2ccc(Cl)cc2)cc1)C(=O)O", "note": "[Bezafibrate]", "cell-cell fusion (z-score)": "inactive: 3.7"}, {"smiles": "O=C(O)c1ccccc1O", "cell-cell fusion (z-score)": "inactive: 2.29"}, {"smiles": "Cn1cnc2c1c(=O)[nH]c(=O)n2C.NCCO", "cell-cell fusion (z-score)": "inactive: 2.68"}, {"smiles": "CCCCCCCCCC(=O)O[C@H]1CC[C@H]2[C@@H]3CCC4=CC(=O)CC[C@@H]4[C@H]3CC[C@]12C", "note": "[Nandrolone decanoate]", "cell-cell fusion (z-score)": "inactive: 2.63"}, {"smiles": "C[C@]12C=CC(=O)C=C1CC[C@H]1[C@@H]3C[C@@H](O)[C@](O)(C(=O)CO)[C@@]3(C)C[C@H](O)[C@@]12F", "note": "[Triamcinolone]", "cell-cell fusion (z-score)": "inactive: 2.96"}, {"smiles": "CC/C(=C(\\c1ccccc1)c1ccc(OCCN(C)C)cc1)c1ccccc1.O=C(O)CC(O)(CC(=O)O)C(=O)O", "note": "[Tamoxifen citrate]", "cell-cell fusion (z-score)": "active: -5.13"}, {"smiles": "CC/C(=C(\\c1ccccc1)c1ccc(OCCN(C)C)cc1)c1ccccc1.O=C(O)CC(O)(CC(=O)O)C(=O)O", "cell-cell fusion (z-score)": "inactive: 1.44"}, {"smiles": "Cn1c(=O)c2c(ncn2CC(O)CO)n(C)c1=O", "note": "(stereo not drawn)", "cell-cell fusion (z-score)": "inactive: 1.41"}, {"smiles": "OC[C@H]1O[C@@H](O[C@H]2[C@H](O)[C@@H](O)[C@@H](O)O[C@@H]2CO)[C@H](O)[C@@H](O)[C@@H]1O", "cell-cell fusion (z-score)": "inactive: 2.41"}, {"smiles": "CC1CC[C@@]2(OC1)O[C@H]1CC3C4CC[C@@H]5C[C@@H](O)CC[C@]5(C)C4CC[C@]3(C)[C@H]1[C@@H]2C", "note": "(stereo partly drawn)", "cell-cell fusion (z-score)": "inactive: 2.94"}]}]}
